Assay results: PubChem BioAssay AID504834 (National Center for Advancing Translational Sciences (NCATS), 2011)
The whole screen tested about 320,000 compounds, of which about 22,000 (6.9%) were called active. This list was built around the results that the source calls inconclusive (neither active nor inactive); the mix of calls is not that of the screen. Calls follow the shape of the dose curve; as a rule, active = well fitted inhibition curve with a large enough effect; inconclusive = small, poorly fitted or top-dose-only effect, or another doubt; inactive = no such curve, though single readings can be large or run the other way. Potencies beside an inconclusive call are fits to weak or partial responses and may not hold up. Where a SMILES comes first, the peptide text is derived from it. [ ]: non-standard residue; d: D form. The star is where a group is joined. ξ: configuration not given here. Cbz = O=C(OCc1ccccc1)*; ξV = CC(C)C(N)C(=O)O

assay: Primary qHTS for delayed death inhibitors of the malarial parasite plastid, 96 hour incubation; details: P. falciparum luciferase reporter growth; series mostly up to 28.7 µM; activity change, negative = inhibition: at the top concentration
How it was run: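 Compounds incubated with erythrocytes infected by luciferase-expressing P. falciparum (2% hematocrit, 0.05% parasitemia final) for 96 hours, 37 C in 5% CO2. Growth inhibition scored as decreased luciferase luminescence.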
% is scaled to controls: 0 for no effect and ±100 for the full control effect; potency is read from the fitted curve at half-maximal effect.

Compound | Potency | activity change, negative = inhibition
Cc1cc(O)c(C(C)C)cc1NC(=O)Nc1cccc2ccccc12 | inconclusive: 10.4 µM [inhibitor, single point] | 
Cc1cccc(C2(c3cccc(C)c3)OC(=O)c3ccccc32)c1 | inconclusive: 5.86 µM [inhibitor, partial curve, poor fit] | 
Cc1cc(C)c(OCC(=O)N2CCN(c3ncc(C(F)(F)F)cc3Cl)CC2)c(C)c1 |  | inactive: 27.7%
CCC(NC(=O)c1cc(COc2cc(C)c(Cl)c(C)c2)on1)c1ccncc1 (stereo not drawn) |  | inactive: 56.4%
CCN(CC)S(=O)(=O)c1ccc(CNC(=O)CN2C(=O)NC3(CCc4ccccc43)C2=O)cc1 (stereo not drawn) | inconclusive: 18.5 µM [inhibitor, single point] | 
CCOc1ccc(-c2csc3nc[nH]c(=O)c23)cc1 | inconclusive: 1.47 µM [inhibitor, partial curve] | 
O=C(C1CCCN(c2nnc(-n3cccc3)s2)C1)N1CCN(c2ccccc2)CC1 (stereo not drawn) | inconclusive: 18.5 µM [inhibitor, single point] | 
COC(=O)CNC(=O)C(NC(=O)OCc1ccccc1)C(C)C (stereo not drawn) (Cbz-[ξV]-Gly-OMe) | inconclusive: 13.1 µM [inhibitor, partial curve] | 
Oc1cc2c(cc1O)C1c3ccc(O)c(O)c3OCC1(O)C2 (stereo not drawn) | active: 2.62 µM | 
Cc1cc(Oc2ccc(Cl)cc2)nc(-c2ccccn2)n1 | inconclusive: 1.65 µM [inhibitor, full curve] | 
COc1ccc(CN2CCNC(=O)C2CC(=O)N2CCCO2)c(OC)c1 (stereo not drawn) | inconclusive: 1.17 µM [inhibitor, partial curve, poor fit] | 
Nc1nc2ccccc2cc1S(=O)(=O)c1ccccc1 | inconclusive: 13.1 µM [inhibitor, single point] | 
Cc1ccc(C(=O)N/C(=C\c2ccco2)C(=O)NCCN2CCOCC2)cc1C | inconclusive: 16.5 µM [inhibitor, single point] | 
O=C(/C=C/c1cccs1)NC(=S)NNC(=O)c1ccccc1O |  | inactive: 18.4%
CC(CNC(=O)COc1ccccc1)OC(=O)Nc1cccc(Cl)c1 (stereo not drawn) | inconclusive: 3.7 µM [inhibitor, partial curve, poor fit] | 
CN(Cc1nc(-c2ccccn2)no1)S(=O)(=O)c1ccccc1 |  | inactive: -9.6%
CCNS(=O)(=O)c1ccc(CCC(=O)N2CCN(c3ccccc3F)CC2)cc1 | inconclusive: 11.7 µM [inhibitor, single point] | 
CCN1C(=O)[C@@H]2[C@@H](c3ccc(-c4ccc(OC)cc4)c(OC)c3)N3CCCC[C@@]3(C(=O)OC)[C@@H]2C1=O | active: 4.15 µM | 
COc1cccc(C2c3[nH]c4ccccc4c3CCN2Cc2cccn2-c2ncccn2)c1 (stereo not drawn) | active: 5.22 µM | 
O=C1CCN(CCc2ccccc2)CCN1[C@H](COc1ccccc1)Cc1ccccc1 | active: 3.29 µM | 
Cc1ccc(C(C)C)cc1OCC(=O)N1CCN(C(=O)c2ccco2)CC1 | inconclusive: 18.5 µM [inhibitor, single point] | 
Cc1ccccc1OCC(O)CN1CCN(CCN2C(=O)c3cccc4cccc(c34)C2=O)CC1 (stereo not drawn) | inconclusive: 18.5 µM [inhibitor, single point] | 
Cc1ccc(CNc2ccc3nnc(-c4ccccc4)n3n2)cc1 | inconclusive: 18.5 µM [inhibitor, single point] | 

Compound | Potency | activity change, negative = inhibition
CNc1nnc(Sc2ncccc2[N+](=O)[O-])s1 | inconclusive: 14.7 µM [inhibitor, partial curve, poor fit] | 
C=CC(n1cncn1)C(O)(c1ccccc1)c1ccccc1 (stereo not drawn) | inconclusive: 18.5 µM [inhibitor, single point] | 
Cc1cc(C)c(NC(=O)CN(C)C(=O)C2CC(=O)N(c3cccc4ccccc34)C2)c(C)c1 (stereo not drawn) | inconclusive: 3.29 µM [inhibitor, partial curve, poor fit] | 
Cc1ccc(C)c(Nc2nc3ccccc3n3cnnc23)c1 | inconclusive: 4.15 µM [inhibitor, single point] | 
CC(C)(C)c1ccc(NC(=O)CCNC(=O)c2ccco2)cc1 |  | inactive: 12.5%
CCN1CCN(C2=NC(=O)/C(=C/c3ccc(C)o3)S2)CC1 | active: 13.1 µM | 
Cc1cccnc1NC(=O)C1COc2ccccc2O1 (stereo not drawn) | inconclusive: 18.5 µM [inhibitor, single point] | 
COc1ccc(N=C2SC(CC(=O)Nc3ccccc3)C(=O)N2CCc2ccccn2)cc1 (stereo not drawn) | active: 14.7 µM | 
CN(C)c1ccc(/C=C(/NC(=O)c2ccccc2)C(=O)NCCCn2ccnc2)cc1 | inconclusive: 18.5 µM [inhibitor, single point] | 
CC1CCC(NC(=O)CSc2ccc(S(=O)(=O)N(C)C)cn2)CC1 (stereo not drawn) | inconclusive: 18.5 µM [inhibitor, single point] | 
N#CCC(=O)N/N=C/c1cn(Cc2ccc(Cl)c(Cl)c2)c2ccccc12 | inconclusive: 4.15 µM [inhibitor, single point] | 
Cc1cc(NS(=O)(=O)c2ccc(NC(=O)Cc3ccc(Cl)c(Cl)c3)cc2)no1 |  | inactive: 9.67%
O=C(CN1C(=O)C2CC=CCC2C1=O)NCc1ccc2c(c1)OCO2 (stereo not drawn) |  | inactive: 45.4%
CCOC(=O)N1C(=O)[C@](c2ccc(Cl)cc2)(C(C)C)N1C(=O)OCC |  | inactive: 45.4%
Brc1ccc2c(c1)C(c1ccc(N3CCOCC3)cc1)=NNC(c1cccs1)=N2 | inconclusive: 10.4 µM [inhibitor, single point] | 
Cc1ccc(S(=O)(=O)N(C)CC(=O)N(CC(C)C)C2CCS(=O)(=O)C2)cc1 (stereo not drawn) | inconclusive: 1.17 µM [inhibitor, partial curve, poor fit] | 
COC(=O)C1=C(c2ccc(-c3ccccc3)c(F)c2)C[C@@H]2CC[C@H]1N2C(=O)NCc1cccc2ccccc12 | active: 1.04 µM | 
CCOC(=O)C1=C(C)NC(SCC(=O)O)=NC1c1ccccc1 (stereo not drawn) | inconclusive: 10.4 µM [inhibitor, single point] | 
O=C(Nc1ccc(C(=O)N2CCCCC2)cc1)c1cccc([N+](=O)[O-])c1 |  | inactive: -8.03%
COc1cccc(-c2csc(N3CCN(C(=S)Nc4ccccc4)CC3)n2)c1 | inconclusive: 18.5 µM [inhibitor, single point] | 
O=C(NCC1CCCCC1)c1cccnc1 | inconclusive: 10.4 µM [inhibitor, single point] | 
COc1ccc(CN(C(=O)CSc2nnc(-c3ccccc3F)o2)c2ccc(F)cc2)cc1 | inconclusive: 10.4 µM [inhibitor, partial curve] | 
CCSc1nnc(NC(=O)[C@@H](NC(=O)c2ccc(C(C)(C)C)cc2)C(C)C)s1 | inconclusive: 11.7 µM [inhibitor, single point] | 

An excerpt from above in order of molecular weight, largest number first.
Compound | Potency | activity change, negative = inhibition
O=C(C1CCCN(c2nnc(-n3cccc3)s2)C1)N1CCN(c2ccccc2)CC1 (stereo not drawn) | inconclusive: 18.5 µM [inhibitor, single point] | 
CCNS(=O)(=O)c1ccc(CCC(=O)N2CCN(c3ccccc3F)CC2)cc1 | inconclusive: 11.7 µM [inhibitor, single point] | 
COc1cccc(-c2csc(N3CCN(C(=S)Nc4ccccc4)CC3)n2)c1 | inconclusive: 18.5 µM [inhibitor, single point] | 

Going on with the list.

Compound | Potency | activity change, negative = inhibition
CC(=O)N1CCN(Cc2nc(C(c3ccccc3)c3ccccc3)no2)CC1 | inconclusive: 20.8 µM [inhibitor, partial curve, poor fit] | 
CN1C(=O)c2ccc(C(=O)Nc3ccc(Br)cn3)cc2C1=O |  | inactive: -14%
COc1ccccc1NC(=O)CCS(=O)(=O)c1ccc2c(c1)oc(=O)n2C | inconclusive: 10.4 µM [inhibitor, single point] | 
CCn1c(-c2cccnc2)n[nH]c1=S |  | inactive: 18.6%
COc1ccc(NC(=O)CS(=O)CC(=O)NCC2OCCc3ccccc32)cc1 (stereo not drawn) | inconclusive: 18.5 µM [inhibitor, single point] | 
CC1CCCCC1NC(=O)NC(=O)CCl (stereo not drawn) | inconclusive: 11.7 µM [inhibitor, partial curve, poor fit] | 
CCOC(=O)c1c(NC(=O)c2ccc(S(=O)(=O)N(C)CC3CCCO3)cc2)sc2c1CCN(C)C2 (stereo not drawn) | inconclusive: 4.15 µM [inhibitor, single point] | 
O=C(Cn1c(=O)oc2ccccc21)Nc1ccccc1C(F)(F)F | inconclusive: 10.4 µM [inhibitor, single point] | 
CCC(CC)C(=O)NCCCCc1ccccc1 |  | inactive: 0%
CC1(C)CCCC(C)(C)N1CC(O)COCCOc1ccc(Br)cc1 (stereo not drawn) | inconclusive: 5.22 µM [inhibitor, partial curve, poor fit] | 
CC(C)(C)c1ccc(C(=O)NNc2ncccc2-n2cccc2)cc1 | inconclusive: 13.1 µM [inhibitor, partial curve] | 
COc1cccc(-n2nc(C(=O)N3CC(C)CC(C)C3)c3ccccc3c2=O)c1 (stereo not drawn) | inconclusive: 18.5 µM [inhibitor, single point] | 
COc1ccccc1CNC(=O)c1cccc(C)c1[N+](=O)[O-] |  | inactive: 115%
COCCCNC(=O)/C(C#N)=C/c1c(N2CCCCCC2)nc2ccccn2c1=O | inconclusive: 4.65 µM [inhibitor, full curve, poor fit] | 
O=C(Nc1ccc(Cc2ccc(NC(=O)N3CCOCC3)cc2)cc1)N1CCOCC1 | active: 4.15 µM | 
COc1cccc(CN2CC(C(=O)N3CCOCC3)CCC2=O)c1 (stereo not drawn) |  | inactive: 8.72%
Cc1cccc(CSc2ccc3nnc(-c4cccs4)n3n2)c1 | inconclusive: 2.94 µM [inhibitor, partial curve, poor fit] | 
O=C(CC(=O)c1ccccc1)Nc1cccnc1Cl |  | inactive: -3.53%
COc1ccc(N2CC(C(=O)N3CCC4(CC3)CC(=O)c3ccccc3O4)CC2=O)cc1 (stereo not drawn) | inconclusive: 9.28 µM [inhibitor, partial curve] | 
O=C(Cn1c[n+](CC(=O)c2ccc([N+](=O)[O-])cc2)cn1)c1ccc([N+](=O)[O-])cc1 | inconclusive: 18.5 µM [inhibitor, single point] | 
CC(C)c1ccc(OCCCN2CCCC2)cc1 |  | inactive: -5.14%
CCN1C[C@]2(COC(=O)c3ccccc3N)CC[C@H](OC)C34[C@@H]5C[C@H]6[C@H](OC)[C@@H]5[C@](O)(C[C@@H]6OC)[C@@](O)([C@H]13)[C@@H](OC)[C@@H]42 | inconclusive: 18.5 µM [inhibitor, single point] | 

Rewritten with tabs: 17 of the compounds above
Compound	Potency	activity change, negative = inhibition
COc1ccccc1NC(=O)CCS(=O)(=O)c1ccc2c(c1)oc(=O)n2C	inconclusive: 10.4 µM [inhibitor, single point]	
CCn1c(-c2cccnc2)n[nH]c1=S		inactive: 18.6%
COc1ccc(NC(=O)CS(=O)CC(=O)NCC2OCCc3ccccc32)cc1 (stereo not drawn)	inconclusive: 18.5 µM [inhibitor, single point]	
CC1CCCCC1NC(=O)NC(=O)CCl (stereo not drawn)	inconclusive: 11.7 µM [inhibitor, partial curve, poor fit]	
CCOC(=O)c1c(NC(=O)c2ccc(S(=O)(=O)N(C)CC3CCCO3)cc2)sc2c1CCN(C)C2 (stereo not drawn)	inconclusive: 4.15 µM [inhibitor, single point]	
O=C(Cn1c(=O)oc2ccccc21)Nc1ccccc1C(F)(F)F	inconclusive: 10.4 µM [inhibitor, single point]	
CCC(CC)C(=O)NCCCCc1ccccc1		inactive: 0%
CC1(C)CCCC(C)(C)N1CC(O)COCCOc1ccc(Br)cc1 (stereo not drawn)	inconclusive: 5.22 µM [inhibitor, partial curve, poor fit]	
CC(C)(C)c1ccc(C(=O)NNc2ncccc2-n2cccc2)cc1	inconclusive: 13.1 µM [inhibitor, partial curve]	
COc1cccc(-n2nc(C(=O)N3CC(C)CC(C)C3)c3ccccc3c2=O)c1 (stereo not drawn)	inconclusive: 18.5 µM [inhibitor, single point]	
COc1ccccc1CNC(=O)c1cccc(C)c1[N+](=O)[O-]		inactive: 115%
COCCCNC(=O)/C(C#N)=C/c1c(N2CCCCCC2)nc2ccccn2c1=O	inconclusive: 4.65 µM [inhibitor, full curve, poor fit]	
O=C(Nc1ccc(Cc2ccc(NC(=O)N3CCOCC3)cc2)cc1)N1CCOCC1	active: 4.15 µM	
COc1cccc(CN2CC(C(=O)N3CCOCC3)CCC2=O)c1 (stereo not drawn)		inactive: 8.72%
Cc1cccc(CSc2ccc3nnc(-c4cccs4)n3n2)c1	inconclusive: 2.94 µM [inhibitor, partial curve, poor fit]	
O=C(CC(=O)c1ccccc1)Nc1cccnc1Cl		inactive: -3.53%
COc1ccc(N2CC(C(=O)N3CCC4(CC3)CC(=O)c3ccccc3O4)CC2=O)cc1 (stereo not drawn)	inconclusive: 9.28 µM [inhibitor, partial curve]	
